The values that follow come from paper PMC7063047.

Chains of the proteins cited; added tags and fusions are not shown. Lines headed by an entry give the natural chain unless they say otherwise; changes in a name come on top. A line that says so, or that is headed by a name, gives the form on record, which may keep a tag or linker.
endogenous USP9X (Q93008-3, form named): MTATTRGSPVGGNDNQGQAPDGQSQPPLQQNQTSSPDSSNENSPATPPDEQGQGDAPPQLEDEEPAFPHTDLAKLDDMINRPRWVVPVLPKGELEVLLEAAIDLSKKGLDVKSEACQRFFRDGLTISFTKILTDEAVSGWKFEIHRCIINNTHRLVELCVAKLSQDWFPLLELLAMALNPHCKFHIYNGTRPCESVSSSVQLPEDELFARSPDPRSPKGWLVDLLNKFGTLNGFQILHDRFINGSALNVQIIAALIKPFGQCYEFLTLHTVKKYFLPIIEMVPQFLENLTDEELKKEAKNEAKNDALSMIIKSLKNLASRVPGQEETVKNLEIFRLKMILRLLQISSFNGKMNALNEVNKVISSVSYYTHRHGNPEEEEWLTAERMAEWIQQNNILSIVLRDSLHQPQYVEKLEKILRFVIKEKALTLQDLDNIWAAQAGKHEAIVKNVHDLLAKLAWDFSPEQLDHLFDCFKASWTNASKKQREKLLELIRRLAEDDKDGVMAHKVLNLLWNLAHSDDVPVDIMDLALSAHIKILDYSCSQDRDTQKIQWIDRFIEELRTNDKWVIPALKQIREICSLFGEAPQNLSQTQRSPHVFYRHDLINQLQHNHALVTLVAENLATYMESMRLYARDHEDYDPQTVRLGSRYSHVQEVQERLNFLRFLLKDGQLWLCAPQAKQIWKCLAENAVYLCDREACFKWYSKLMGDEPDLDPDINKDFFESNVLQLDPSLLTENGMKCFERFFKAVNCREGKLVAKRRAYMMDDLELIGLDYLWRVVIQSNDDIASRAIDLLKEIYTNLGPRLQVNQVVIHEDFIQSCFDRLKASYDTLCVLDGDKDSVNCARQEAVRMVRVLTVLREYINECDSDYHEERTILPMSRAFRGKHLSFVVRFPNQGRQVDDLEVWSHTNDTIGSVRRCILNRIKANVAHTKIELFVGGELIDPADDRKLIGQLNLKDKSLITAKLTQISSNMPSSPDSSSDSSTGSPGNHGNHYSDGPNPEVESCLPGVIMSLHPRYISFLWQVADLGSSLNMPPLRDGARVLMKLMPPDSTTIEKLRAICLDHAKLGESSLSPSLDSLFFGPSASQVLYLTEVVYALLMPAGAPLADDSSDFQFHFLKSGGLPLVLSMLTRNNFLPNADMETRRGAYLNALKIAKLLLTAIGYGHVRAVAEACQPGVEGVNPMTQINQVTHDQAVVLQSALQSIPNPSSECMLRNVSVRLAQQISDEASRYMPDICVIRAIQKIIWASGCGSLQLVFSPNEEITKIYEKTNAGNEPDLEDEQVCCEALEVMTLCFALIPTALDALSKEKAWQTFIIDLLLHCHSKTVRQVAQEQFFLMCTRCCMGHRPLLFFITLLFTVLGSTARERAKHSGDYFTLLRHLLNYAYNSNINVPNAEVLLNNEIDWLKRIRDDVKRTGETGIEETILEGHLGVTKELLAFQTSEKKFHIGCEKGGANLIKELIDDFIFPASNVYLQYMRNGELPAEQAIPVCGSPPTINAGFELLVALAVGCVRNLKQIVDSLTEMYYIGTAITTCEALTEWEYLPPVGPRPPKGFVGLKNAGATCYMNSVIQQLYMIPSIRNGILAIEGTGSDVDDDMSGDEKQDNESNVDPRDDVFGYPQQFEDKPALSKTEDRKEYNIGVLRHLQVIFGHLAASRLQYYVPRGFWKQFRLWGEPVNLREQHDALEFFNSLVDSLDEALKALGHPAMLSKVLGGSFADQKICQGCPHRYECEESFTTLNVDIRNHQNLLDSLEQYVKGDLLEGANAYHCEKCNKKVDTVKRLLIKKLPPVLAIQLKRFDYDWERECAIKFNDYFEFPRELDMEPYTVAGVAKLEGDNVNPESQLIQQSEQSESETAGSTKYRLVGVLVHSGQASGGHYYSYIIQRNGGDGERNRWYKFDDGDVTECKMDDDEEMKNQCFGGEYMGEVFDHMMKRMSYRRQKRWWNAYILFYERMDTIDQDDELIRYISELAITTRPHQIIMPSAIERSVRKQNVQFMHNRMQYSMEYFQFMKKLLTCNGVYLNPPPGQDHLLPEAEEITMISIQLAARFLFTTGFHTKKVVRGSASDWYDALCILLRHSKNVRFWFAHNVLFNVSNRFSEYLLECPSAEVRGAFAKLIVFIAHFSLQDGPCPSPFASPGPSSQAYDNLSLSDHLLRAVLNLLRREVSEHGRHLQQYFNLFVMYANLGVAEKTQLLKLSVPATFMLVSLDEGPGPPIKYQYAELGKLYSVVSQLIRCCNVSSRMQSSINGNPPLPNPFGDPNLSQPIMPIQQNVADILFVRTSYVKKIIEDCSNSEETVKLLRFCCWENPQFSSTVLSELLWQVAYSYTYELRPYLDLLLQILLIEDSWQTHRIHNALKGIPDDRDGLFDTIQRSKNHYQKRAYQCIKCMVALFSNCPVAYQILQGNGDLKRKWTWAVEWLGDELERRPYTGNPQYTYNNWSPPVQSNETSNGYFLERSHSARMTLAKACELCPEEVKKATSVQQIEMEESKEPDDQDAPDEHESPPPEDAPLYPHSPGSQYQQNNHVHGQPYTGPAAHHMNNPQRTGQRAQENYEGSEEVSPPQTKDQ

These are yes or no findings as the source states them, for the method shown. Binding seen in cells or lysates may run through a third protein. Some entries that bind do so weakly or less than the wild type. For part of these data: Sequences can lack the tags named with a protein.

The target in test [1] is WT1 (co-immunoprecipitation of Supplementary Fig. 3b) (UniProt P19544). The test is described as follows: co-IP; co-immunoprecipitation of DUBs and WT1 (Supplementary Fig. 3b); format not shown.
The next test has as its target FLAG-tagged USP9X^WT (UniProt Q93008). The test is described as follows: co-IP; anti-FLAG immunoprecipitation of the FLAG-tagged protein from HEK 293T lysates (Tris/HCl 50 mM, NaCl 150 mM, EDTA 1 mM, NP40 0.1%, MgCl2 5 mM, glycerol 5%; beads 1.5 h at 4 °C), western blot; cells untreated/asynchronous or arrested in mitosis with nocodazole. (Immunoblotting shows a protein as a band on a membrane.)

Test [2] addresses T1, FLAG-tagged CDC14B (human) (UniProt O60729).
T1 sequence: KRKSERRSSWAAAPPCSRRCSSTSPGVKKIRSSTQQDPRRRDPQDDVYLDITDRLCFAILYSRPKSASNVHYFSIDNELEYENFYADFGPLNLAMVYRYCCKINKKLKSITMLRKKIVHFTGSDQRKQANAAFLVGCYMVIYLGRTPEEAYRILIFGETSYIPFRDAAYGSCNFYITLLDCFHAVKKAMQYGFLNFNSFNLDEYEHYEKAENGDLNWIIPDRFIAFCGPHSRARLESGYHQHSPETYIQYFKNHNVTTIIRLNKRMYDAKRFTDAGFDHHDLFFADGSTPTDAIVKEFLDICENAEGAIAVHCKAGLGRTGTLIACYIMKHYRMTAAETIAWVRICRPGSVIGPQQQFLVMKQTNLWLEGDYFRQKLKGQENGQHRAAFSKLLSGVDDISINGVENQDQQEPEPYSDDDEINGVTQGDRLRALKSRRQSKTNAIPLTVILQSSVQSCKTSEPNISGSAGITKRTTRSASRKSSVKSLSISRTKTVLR
Described as above.

On to “USP9X (co-immunoprecipitation of Supplementary Fig. 3b) (from UniProt Q93008-3 1-2570) (enzyme)”, for which, in test [1], the binding result is on record as “binds”.

On to “WT1 co-immunoprecipitated with FLAG-USP9X from HEK 293T cells (from UniProt P19544 1-449)”, for which, in the test with FLAG-tagged USP9X^WT, the binding entry is recorded as “binds”.

As to “endogenous USP9X (from UniProt Q93008-3 1-2570) (enzyme)”, the binding entry in test [2] was “binds”.
